Data as given in PubChem BioAssay AID602196 (INSERM, 2012)
Shown is a random part of about 23,000 reagents tested. 455 of all reagents (2%) were called active. 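Active includes both protection and sensitisation; some change values fall well beyond the stated -50 to +50 range.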 Not stated in the record: the amount of reagent.

Screen: 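Modifiers of cisplatin sensitivity in A549 cells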
Cell system: human A549 lung cancer cells
Knock-down reagent: siRNA pair against human genes
Time to read-out: 48 h transfection before cisplatin; time from cisplatin to read-out not stated
Treatment: cisplatin at a dose killing half of control-siRNA cells; exact dose and duration not given
Detection: 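Cisplatin cell death as a shift from the 50% death seen with control siRNA; siRNAs toxic or growth-blocking alone scored 0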
Scale: two-siRNA summed score (-2 to +2): higher = both siRNAs protect from cisplatin killing; -2 means both sensitise; mean protection from cisplatin (shift in death) and protection from cisplatin (shift in death), siRNA C and protection from cisplatin (shift in death), siRNA D: higher = protection from cisplatin killing
Call rule: 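Each siRNA scores 0 if harmful alone by LDH or WST-1, otherwise +1 if it reduces and -1 if it increases cisplatin killing; a gene is active when both siRNAs agree (sum +2 or -2)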
Meaning of the calls: active = both siRNAs shift cisplatin killing the same way; inactive = no consistent shift, or siRNA harmful alone

Target gene	two-siRNA summed score (-2 to +2)	mean protection from cisplatin (shift in death) (%)	protection from cisplatin (shift in death), siRNA C (%)	protection from cisplatin (shift in death), siRNA D (%)	Outcome
ZDHHC7	0	9.4	17.3	1.6	inactive
LOC442610	0	3.9	4.7	3.2	inactive
H2BC9	0	12.1	15.3	9	inactive
ZNF462	0	-1.4	7.9	-10.7	inactive
LOC441813	0	9.3	17.1	1.6	inactive
ZNF280B	1	5.4	18.5	-7.8	inactive
LRRN4	1	11.1	1.5	20.6	inactive
LOC127099	0	8.4	10.2	6.7	inactive
RCHY1	0	5.2	7.3	3.1	inactive
EMID1	0	0.4	-17.8	18.6	inactive
GAP43	0	0.4	-12	12.7	inactive
LAPTM5	1	9.3	8.4	10.2	inactive
SAMD9L	1	11.4	13.5	9.3	inactive
CHMP2A	0	4.7	-9.9	19.3	inactive
LOC390352	1	20.1	13.3	26.9	inactive
LOC401015	1	13.8	17.3	10.3	inactive
HINFP	0	10.1	9.5	10.6	inactive
LOC442651	0	6.8	8	5.7	inactive
MCM6	1	9	15.5	2.4	inactive
KCNJ6	-1	-28	-14.6	-41.3	inactive
DDX28	0	13.8	9.6	18	inactive
LAYN	0	-5.7	3.7	-15	inactive
ARK2C	0	9.2	5.1	13.4	inactive
PROKR1	0	4.5	-1.5	10.5	inactive
REEP1	0	-2.4	-1.1	-3.8	inactive
LTV1	1	9.5	14.3	4.7	inactive
POLR2K	0	8.7	17.4	-0.1	inactive
LOC388143	0	15.1	-7.2	37.4	inactive
LOC91316	1	20.2	29.2	11.2	inactive
LOC375748	1	14.6	21	8.2	inactive
OR13F1	0	15.5	6.6	24.4	inactive
NEK8	0	5.9	12.5	-0.7	inactive
FAM167A	0	-6.6	2.4	-15.7	inactive
LOC388917	1	8.4	1.1	15.7	inactive
AVPI1	0	2.9	0.7	5.1	inactive
CD44	1	18.1	23.5	12.7	inactive
SUSD3	1	12.8	5.1	20.5	inactive
LOC143243	0	0.5	-7	7.9	inactive
LOC389950	0	3.5	-0.7	7.8	inactive

5 entries from above in another layout:
Target gene | two-siRNA summed score (-2 to +2) | mean protection from cisplatin (shift in death) (%) | protection from cisplatin (shift in death), siRNA C (%) | protection from cisplatin (shift in death), siRNA D (%) | Outcome
PROKR1 | 0 | 4.5 | -1.5 | 10.5 | inactive
REEP1 | 0 | -2.4 | -1.1 | -3.8 | inactive
LTV1 | 1 | 9.5 | 14.3 | 4.7 | inactive
POLR2K | 0 | 8.7 | 17.4 | -0.1 | inactive
LOC388143 | 0 | 15.1 | -7.2 | 37.4 | inactive
